# Assay results taken from article doi:10.1101/2021.09.16.460691.
# The chains behind the UniProt entries cited, without tags or fusion partners.
# UniProt P60879: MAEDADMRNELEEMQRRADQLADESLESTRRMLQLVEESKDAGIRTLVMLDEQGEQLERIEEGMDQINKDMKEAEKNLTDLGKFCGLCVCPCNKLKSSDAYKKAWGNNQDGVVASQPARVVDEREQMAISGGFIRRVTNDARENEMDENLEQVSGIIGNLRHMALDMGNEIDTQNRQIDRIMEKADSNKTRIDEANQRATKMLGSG
# UniProt Q9Z1G4: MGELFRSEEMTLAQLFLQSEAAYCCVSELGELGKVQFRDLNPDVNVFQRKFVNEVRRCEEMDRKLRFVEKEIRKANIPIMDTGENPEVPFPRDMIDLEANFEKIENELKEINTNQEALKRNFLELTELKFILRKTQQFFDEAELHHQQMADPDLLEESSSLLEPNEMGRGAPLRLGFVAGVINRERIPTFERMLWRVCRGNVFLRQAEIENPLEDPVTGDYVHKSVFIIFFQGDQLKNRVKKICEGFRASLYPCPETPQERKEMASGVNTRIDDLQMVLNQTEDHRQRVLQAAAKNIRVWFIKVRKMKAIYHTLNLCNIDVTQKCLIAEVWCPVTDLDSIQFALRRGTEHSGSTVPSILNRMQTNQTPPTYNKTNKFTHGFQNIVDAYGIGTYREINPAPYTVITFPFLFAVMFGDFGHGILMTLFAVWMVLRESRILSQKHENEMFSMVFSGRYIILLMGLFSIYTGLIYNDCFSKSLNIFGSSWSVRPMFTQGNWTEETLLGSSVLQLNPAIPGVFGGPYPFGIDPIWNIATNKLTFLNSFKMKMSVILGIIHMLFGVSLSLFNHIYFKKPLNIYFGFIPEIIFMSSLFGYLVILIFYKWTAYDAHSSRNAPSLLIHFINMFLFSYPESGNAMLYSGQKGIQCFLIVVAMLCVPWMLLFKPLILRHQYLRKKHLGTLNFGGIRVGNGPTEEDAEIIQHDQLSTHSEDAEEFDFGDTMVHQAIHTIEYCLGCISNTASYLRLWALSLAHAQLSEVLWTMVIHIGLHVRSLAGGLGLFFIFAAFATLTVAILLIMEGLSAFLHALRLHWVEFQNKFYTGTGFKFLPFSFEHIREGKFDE
# UniProt P51863: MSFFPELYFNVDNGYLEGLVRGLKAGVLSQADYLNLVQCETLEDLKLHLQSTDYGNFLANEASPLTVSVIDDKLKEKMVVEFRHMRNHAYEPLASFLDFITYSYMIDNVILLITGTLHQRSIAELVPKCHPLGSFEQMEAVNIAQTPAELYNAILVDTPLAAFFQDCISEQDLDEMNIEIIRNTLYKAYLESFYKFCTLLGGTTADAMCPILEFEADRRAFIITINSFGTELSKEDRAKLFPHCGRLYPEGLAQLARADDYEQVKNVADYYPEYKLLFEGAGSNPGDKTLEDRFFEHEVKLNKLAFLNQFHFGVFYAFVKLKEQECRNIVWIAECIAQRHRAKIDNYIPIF
# UniProt Q8BVE3: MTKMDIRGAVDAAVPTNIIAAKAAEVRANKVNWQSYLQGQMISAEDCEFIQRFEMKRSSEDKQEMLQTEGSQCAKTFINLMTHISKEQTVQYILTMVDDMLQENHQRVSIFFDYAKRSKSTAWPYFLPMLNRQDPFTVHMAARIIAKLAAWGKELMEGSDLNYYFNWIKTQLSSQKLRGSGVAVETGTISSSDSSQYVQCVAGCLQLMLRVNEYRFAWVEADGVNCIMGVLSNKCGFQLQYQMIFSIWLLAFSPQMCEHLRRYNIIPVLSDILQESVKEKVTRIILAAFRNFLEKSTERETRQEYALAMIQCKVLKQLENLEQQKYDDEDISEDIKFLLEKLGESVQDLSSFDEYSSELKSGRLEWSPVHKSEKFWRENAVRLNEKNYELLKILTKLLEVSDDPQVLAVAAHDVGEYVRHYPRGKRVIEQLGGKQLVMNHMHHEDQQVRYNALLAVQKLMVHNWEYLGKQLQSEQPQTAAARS
# UniProt P61264: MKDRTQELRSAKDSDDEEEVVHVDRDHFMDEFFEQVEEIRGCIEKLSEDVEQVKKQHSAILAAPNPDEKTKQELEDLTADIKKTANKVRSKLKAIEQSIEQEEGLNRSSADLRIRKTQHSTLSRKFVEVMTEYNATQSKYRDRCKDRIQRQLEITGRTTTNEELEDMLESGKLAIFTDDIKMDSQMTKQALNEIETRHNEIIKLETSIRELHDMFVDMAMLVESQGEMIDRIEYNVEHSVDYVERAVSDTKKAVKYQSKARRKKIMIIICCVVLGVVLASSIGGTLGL
# Where two headings read alike, the source gives them in different places. No constants are given. Whether binding was seen depends on the method and setting. In cells and extracts the contact can be indirect. Some entries that bind do so weakly or less than the wild type. For some of these results: Tags and fused reporters may be left off the sequences shown.
# T1: FLAG-CLN3 (UniProt Q13286)
# T1 sequence: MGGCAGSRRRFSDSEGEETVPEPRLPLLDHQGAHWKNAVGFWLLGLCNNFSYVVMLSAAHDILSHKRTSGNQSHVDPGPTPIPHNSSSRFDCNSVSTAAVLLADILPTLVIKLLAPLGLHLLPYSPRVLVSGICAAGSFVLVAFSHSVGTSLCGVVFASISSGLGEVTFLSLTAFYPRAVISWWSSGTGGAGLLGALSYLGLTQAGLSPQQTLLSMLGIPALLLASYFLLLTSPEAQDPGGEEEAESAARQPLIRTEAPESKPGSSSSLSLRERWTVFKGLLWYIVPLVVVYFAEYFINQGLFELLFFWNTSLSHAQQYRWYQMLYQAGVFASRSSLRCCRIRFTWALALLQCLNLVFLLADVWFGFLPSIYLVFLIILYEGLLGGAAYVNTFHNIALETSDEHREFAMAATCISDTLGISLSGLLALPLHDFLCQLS
# T2: Synaptobrevin homolog YKT6 (mouse (endogenous in Neuro2A and mouse brain)) (UniProt Q9CQW1)
# T2 sequence: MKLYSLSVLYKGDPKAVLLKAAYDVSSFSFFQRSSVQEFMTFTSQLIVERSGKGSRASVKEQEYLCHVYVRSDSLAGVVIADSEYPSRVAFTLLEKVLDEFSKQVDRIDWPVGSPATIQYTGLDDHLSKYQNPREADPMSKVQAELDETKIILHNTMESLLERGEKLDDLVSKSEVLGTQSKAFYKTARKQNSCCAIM
# T3: Syntaxin 7 (mouse (endogenous in Neuro2A and mouse brain)) (UniProt O70439)
# T3 sequence: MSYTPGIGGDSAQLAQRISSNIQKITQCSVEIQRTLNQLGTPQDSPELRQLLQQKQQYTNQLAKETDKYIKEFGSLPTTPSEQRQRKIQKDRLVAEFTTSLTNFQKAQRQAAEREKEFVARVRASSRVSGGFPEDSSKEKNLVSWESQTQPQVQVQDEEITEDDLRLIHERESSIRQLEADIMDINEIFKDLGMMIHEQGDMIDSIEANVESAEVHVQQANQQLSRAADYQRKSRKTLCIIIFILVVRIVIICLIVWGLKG
# T4: VTI1B (mouse (endogenous in Neuro2A and mouse brain)) (UniProt O88384)
# T4 sequence: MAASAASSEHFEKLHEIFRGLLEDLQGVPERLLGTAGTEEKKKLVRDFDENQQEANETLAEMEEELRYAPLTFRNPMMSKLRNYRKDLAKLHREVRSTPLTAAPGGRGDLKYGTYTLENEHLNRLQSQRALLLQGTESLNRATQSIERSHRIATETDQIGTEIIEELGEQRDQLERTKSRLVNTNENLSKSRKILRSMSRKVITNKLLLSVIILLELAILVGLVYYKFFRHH
# B1: TBC1D15 (protein, UniProt Q9CXF4 1-671)
# chain: MAAAGVVSGKIIYEQEGVYIHSSCGKANDQDSLISGILRVLEKDAEVIVDWRPLDDALDSSSILCAGKDSSSVVEWTQAPKERAHRGSDQQSSYEAEWDMVTTVSFKKKPHTNGDAPGHRNGKSKWSFLFSLADLKSVKQSKEGMGWSYLVFCLKDDVMLPALHFHQGDSKLLIESLEKYVVLCESPQDSRTLLVNCQNKSLSQSFENLLDEPAYGLIQKIKKDPYTATMVGFSKVTNYIFDSLRGSDPSTHQRPPSEMADFLSDAIPGLKINQQEEPGFEVITRIDLGERPVVQRREPVSLEEWNKSLDPEGRLVAVESMKQKIFRGGLSHSLRKQAWKFLLGYFPWDSTKEERTQLQKQKTDEYFRMKLQWKSVSEAQEKRNSRLRDYRSLIEKDVNRTDRTNKFYEGQDNPGLILLHDILMTYCMYDFDLGYVQGMSDLLSPLLYVMENEVDAFWCFASYMDQMHQNFEEQMQGMKTQLIQLSTLLRLLDSGFCSYLESQDSGYLYFCFRWLLIRFKREFSFLDILRLWEVMWTELPCKNFHLLLCCAILESEKQQIMAKHYGFNEILKHINELSMKIDVEDILCKAEAISLQMAQCKELPQAVCEILGLQDSEITTPDSDTDENVGSPCPVSAFPSSTLPILAASEAKDDSPTQTLASPNACRLTPA
# B2: hCLN6 (protein, UniProt Q9NWW5 1-311)
# chain: MEATRRRQHLGATGGPGAQLGASFLQARHGSVSADEAARTAPFHLDLWFYFTLQNWVLDFGRPIAMLVFPLEWFPLNKPSVGDYFHMAYNVITPFLLLKLIERSPRTLPRSITYVSIIIFIMGASIHLVGDSVNHRLLFSGYQHHLSVRENPIIKNLKPETLIDSFELLYYYDEYLGHCMWYIPFFLILFMYFSGCFTASKAESLIPGPALLLVAPSGLYYWYLVTEGQIFILFIFTFFAMLALVLHQKRKRLFLDSNGLFLFSSFALTLLLVALWVAWLWNDPVLRKKYPGVIYVPEPWAFYTLHVSSRH
# B3: TBC1D5 (protein, UniProt Q80XQ2 1-815)
# chain: MYKSVSETRHPLQSEEQEVGIDPLFSYSNKTRGDLSQNGRGSNSTLDTEGTFNSYMKEWEELFVNNNYLATVRQKGINGQLRSSRFRSICWKLFLCVLPQDKSQWISKIKELRAWYSSIKEIHITNPRKAAGQQDLMINNPLSQDEGSLWNKFFQDKELRSMIEQDVKRTFPEMQFFQQENVRKILTDVLFCYARENEQLLYKQGMHELLAPIIFTLHCDHQAFLHASESAQPSEEMKTLLNPEYLEHDAYAMFSQLMETAEPWFSTFEHDGQKGKETLMAPIPFARPQDLGPTVAIVTKVNQIQDHLLKKHDIELYMHLNRLEIAPQIYGLRWVRLLFGREFPLQDLLVVWDALFADSLNLSLVDYVFTAMLLYIRDALISSNYQTCLGLLMHYPIIGDIHSLILKALFLRDPKRNPRPATYQFHPNLDYYKARGADLMNKSRTNARGAPLNIHKVSNSLINFGRKLISPASAPGSMGGPVPGNNSSSSFSAAIPTRTSTEAPRHHLLQQQQQQQHQQQQQQQPQQQQQQHQQQQQQQRLMKSESMPVQLNKGQSSKTISSSPSIESLPGGREFTGSPPPSATKKDSFFSNIARSRSHSKTMGRKESEEELEAQISFLQGQLNDLDAMCKYCAKVMDMHLVNIQDVVLQENLEKEDQILVSLAGLKQIKDILKGSLRFNQSQLEAGENEQITIADDHYCSSGQDQGSQVPRAAKQASSEMPGCTGGTTPDDFILVSKEDEGHRARGAFSGQAQPLLTLRSTSGKSRAPACSPLLFSDPLMGPASASASSSNPSSSPDDDSSKESGFTIVSPLDI
# B4: VTI1B (protein, UniProt O88384 1-232)
# chain: T4 sequence
# B5: Synaptobrevin homolog YKT6 (protein, UniProt Q9CQW1 1-198)
# chain: T2 sequence
# Experiments:
# Assay in all cases: co-IP
# [1] = biological target: T1, FLAG-CLN3
# [2] = biological target: Synaptosome associated protein 25 (mouse (endogenous in mouse cortex)) (UniProt P60879)
# [3] = biological target: T1, FLAG-CLN3; remark: listed apart in the source
# [4] = biological target: ATP6V0A1 (mouse (endogenous in mouse brain)) (UniProt Q9Z1G4)
# [5] = biological target: ATPase H+ Transporting V0 subunit D1 (mouse (endogenous in Neuro2A and mouse brain)) (UniProt P51863)
# [6] = biological target: ATPase H+ Transporting V1 Subunit H (mouse (endogenous in Neuro2A and mouse brain)) (UniProt Q8BVE3)
# [7] = biological target: T2, Synaptobrevin homolog YKT6 (mouse (endogenous in Neuro2A and mouse brain))
# [8] = biological target: Syntaxin 1B (mouse (endogenous in Neuro2A and mouse brain)) (UniProt P61264)
# [9] = biological target: T3, Syntaxin 7 (mouse (endogenous in Neuro2A and mouse brain))
# [10] = biological target: T4, VTI1B (mouse (endogenous in Neuro2A and mouse brain))
molecule,measurement,setting,value
Syntaxin 1B (from UniProt P61264 1-288),binding,[1],binds
same,binding,[2],binds
B1,binding,[3],binds
B2,binding,[4],binds
same,binding,[5],binds
same,binding,[6],binds
same,binding,[7],binds
same,binding,[8],binds
same,binding,[9],binds
same,binding,[10],binds
B3,binding,[3],binds
B4,binding,[3],binds
B5,binding,[3],binds
